Paper doi:10.1101/2025.10.29.685266
Results are given in words; binding and its absence hold for the method and conditions named. Binding seen in cells or lysates may run through a third protein. Some binding calls cover weakened binding; strength is not graded here.

The chains behind the UniProt entries cited, without tags or fusion partners.
UniProt O43151: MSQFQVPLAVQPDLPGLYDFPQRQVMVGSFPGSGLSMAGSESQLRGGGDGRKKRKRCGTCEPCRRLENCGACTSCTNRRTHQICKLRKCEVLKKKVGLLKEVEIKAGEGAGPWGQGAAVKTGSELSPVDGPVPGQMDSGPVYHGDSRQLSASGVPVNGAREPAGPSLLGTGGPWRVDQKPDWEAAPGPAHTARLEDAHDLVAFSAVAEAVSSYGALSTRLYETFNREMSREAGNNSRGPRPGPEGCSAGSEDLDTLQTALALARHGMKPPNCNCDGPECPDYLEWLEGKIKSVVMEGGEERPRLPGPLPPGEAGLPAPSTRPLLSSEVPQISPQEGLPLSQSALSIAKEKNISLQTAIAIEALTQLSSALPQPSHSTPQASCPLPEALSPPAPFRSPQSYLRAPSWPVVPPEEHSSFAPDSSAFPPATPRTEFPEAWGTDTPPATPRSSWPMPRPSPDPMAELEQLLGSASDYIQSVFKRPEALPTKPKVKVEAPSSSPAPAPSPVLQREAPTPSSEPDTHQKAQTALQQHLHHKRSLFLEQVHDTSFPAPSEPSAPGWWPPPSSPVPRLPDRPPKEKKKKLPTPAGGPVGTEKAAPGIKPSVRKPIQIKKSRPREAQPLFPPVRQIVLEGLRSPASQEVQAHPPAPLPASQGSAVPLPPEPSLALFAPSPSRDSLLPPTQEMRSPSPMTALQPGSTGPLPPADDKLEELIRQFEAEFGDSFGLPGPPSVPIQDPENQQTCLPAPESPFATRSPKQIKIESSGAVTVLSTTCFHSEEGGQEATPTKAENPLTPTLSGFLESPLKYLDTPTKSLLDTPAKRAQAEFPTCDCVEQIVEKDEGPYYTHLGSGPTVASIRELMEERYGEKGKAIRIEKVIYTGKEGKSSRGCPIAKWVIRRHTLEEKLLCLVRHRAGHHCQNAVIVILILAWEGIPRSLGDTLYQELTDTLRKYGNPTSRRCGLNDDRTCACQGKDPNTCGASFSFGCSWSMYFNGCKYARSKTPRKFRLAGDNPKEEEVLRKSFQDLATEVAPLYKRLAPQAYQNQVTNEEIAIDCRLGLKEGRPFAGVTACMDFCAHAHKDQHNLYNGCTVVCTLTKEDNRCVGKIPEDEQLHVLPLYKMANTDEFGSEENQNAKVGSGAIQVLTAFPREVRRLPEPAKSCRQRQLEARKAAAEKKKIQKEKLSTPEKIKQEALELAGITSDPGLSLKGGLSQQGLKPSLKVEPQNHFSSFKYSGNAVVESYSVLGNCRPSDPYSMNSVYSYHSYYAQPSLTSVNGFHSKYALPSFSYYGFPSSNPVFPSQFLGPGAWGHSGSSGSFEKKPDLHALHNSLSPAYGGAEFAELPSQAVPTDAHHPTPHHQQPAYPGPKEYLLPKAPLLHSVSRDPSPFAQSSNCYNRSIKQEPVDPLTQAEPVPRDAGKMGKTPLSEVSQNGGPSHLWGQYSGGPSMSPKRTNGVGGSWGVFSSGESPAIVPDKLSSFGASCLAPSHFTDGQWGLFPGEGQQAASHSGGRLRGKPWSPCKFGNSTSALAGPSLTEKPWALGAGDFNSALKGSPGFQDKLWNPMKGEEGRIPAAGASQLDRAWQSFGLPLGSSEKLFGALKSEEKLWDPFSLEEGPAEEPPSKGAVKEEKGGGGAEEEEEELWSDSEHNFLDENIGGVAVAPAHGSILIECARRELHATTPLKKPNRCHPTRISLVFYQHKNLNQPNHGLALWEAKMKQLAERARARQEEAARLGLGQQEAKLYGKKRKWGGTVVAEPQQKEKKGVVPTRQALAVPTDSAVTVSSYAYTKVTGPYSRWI
UniProt P51608: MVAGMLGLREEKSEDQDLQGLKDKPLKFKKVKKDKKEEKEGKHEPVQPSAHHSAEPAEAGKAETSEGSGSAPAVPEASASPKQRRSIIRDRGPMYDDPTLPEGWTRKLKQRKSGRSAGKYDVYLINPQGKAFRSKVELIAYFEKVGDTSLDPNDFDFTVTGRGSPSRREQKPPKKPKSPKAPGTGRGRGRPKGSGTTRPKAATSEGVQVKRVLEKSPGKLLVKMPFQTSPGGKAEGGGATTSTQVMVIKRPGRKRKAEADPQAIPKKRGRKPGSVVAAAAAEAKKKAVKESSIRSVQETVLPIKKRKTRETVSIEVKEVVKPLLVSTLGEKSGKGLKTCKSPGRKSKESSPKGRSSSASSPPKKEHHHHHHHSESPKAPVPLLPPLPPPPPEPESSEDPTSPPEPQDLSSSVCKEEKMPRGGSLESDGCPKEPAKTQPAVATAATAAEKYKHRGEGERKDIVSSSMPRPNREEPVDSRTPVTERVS

Molecular target: TET3, endogenous in d8 iNGNs (human (endogenous in iNGNs)) (UniProt O43151)
Assay: co-IP

binding: binds
Substance: methyl-CpG-binding protein 2 (MECP2), endogenous in d8 iNGNs (from UniProt P51608 1-486)
